Some of the results follow.

This test is described as follows: murine CD8 T cell vesicle adhesion modulation – mouse 2C CD8+ T cells, flow cytometry, primary screen (AID 2052).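 Note: binding gate set so that unloaded-vesicle control wells show 10% double positive cells.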 The note with it: 2C CD8+ T cell-vesicle binding, measured here: CD8+ vesicle-bound cell fraction, at 7 µM, stronger effect = lower value. Summed up:
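Also added: QL9-peptide-loaded Drosophila micro-vesicles bearing Ld, ICAM-1 and B7-1; Test system: purified 2C TCR transgenic mouse naive CD8+ T cells; Measured by: cytometric PE anti-B7-1 and Alexa647 anti-CD8 signals after 1% paraformaldehyde fixation; Timing: binding step 1.5 h, 37 °C, antibody labelling 20 min, ice.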
A general note: A flow cytometer gives signals particle by particle.
Regarding `CCc1cc(C(=O)NCC2(N3CCCCC3)CCCCC2)sc1C`, the double positive events was determined as 27.9%.
Then `O=C(OC1CN2CCC1CC2)C1c2ccccc2C=Cc2ccccc21` (centres undefined), with 20.7%; and `N/C(=N\O)c1c(N)no[n+]1[O-]`, with 33.9%.
Under `CCOC(=O)N1CCC(Nc2ccc(C)cc2)CC1` stands 59.3%; under `COc1ccc(C(=O)NCC2(N3CCOCC3)CCCCC2)cc1OC`, 54%; under `O=C(NCC1(N2CCOCC2)CCCCC1)c1cc(Br)ccc1Cl`, 39.2%.
Under `COc1cc(C(=O)NCC2(N3CCOCC3)CCCCC2)cc(OC)c1C` stands 41.4%.
The compound `c1ccc(CN2CCC(Nc3ccccc3)CC2)cc1` showed a double positive events of 49.6%.
Under `CCCN1CCC(Nc2cc(OC)cc(OC)c2)CC1` stands 60.7%; under `CN(C)C1(CNC(=O)c2cccc(C#N)c2)CCCCC1`, 60.7%; under `CC(C)(C)OC(=O)N1CCC(N(C(=O)c2ccccc2)c2ccc(Cl)cc2)CC1`, 56%.
The compound `N#Cc1ccc(C(=O)NCC2(N3CCCCC3)CCCCC2)cc1` showed a double positive events of 55.9%.
Under `O=C(NCC1(N2CCCCC2)CCCCC1)c1ccco1` stands 46%.
Then `CN(C)c1ccc(C(=O)NCC2(N3CCCCC3)CCCCC2)cc1`, with 45.9%.
Then `CCN1CCC(Nc2cccc(F)c2)CC1`, with 51.6%; and `Cc1ccc(C(=O)NCC2(N3CCCCC3)CCCCC2)o1`, with 21.8%; and `Fc1ccccc1NC1CCN(Cc2ccccc2)CC1`, with 30.6%.
Consider `COc1cc(OC)cc(C(=O)NCC2(N3CCCCC3)CCCCC2)c1`, for which the double positive events was determined as 38.3%.
Then `CCCOc1ccc(C)cc1CN(CCCl)CCCl`, with 34.2%; and `CN1CCC(Nc2ccc(Cl)cc2)CC1`, with 57.8%; and `CCC(CO)(C(=O)OC1CN2CCC1CC2)c1ccccc1` (centres undefined), with 12%.
Turning to `COc1cc(OC)cc(C(=O)NCC2(N3CCOCC3)CCCCC2)c1`, the double positive events is 32%.
`COc1cccc(C(=O)N(c2cc(C)cc(C)c2)C2CCN(C(=O)OC(C)(C)C)CC2)c1` showed a double positive events of 20.1%.
In turn, `CCCOc1ccc(C(=O)NCC2(N(C)C)CCCCC2)cc1` came in with a double positive events of 9.5%.
Under `CC(C)(C)OC(=O)N1CCC(Nc2ccccc2)CC1` stands 23%.
Then `O=C(O)C1(Nc2ccccc2)CCN(Cc2ccccc2)CC1`, with 43.5%; and `CCOc1ncccc1C(=O)NCC1(N2CCOCC2)CCCCC1`, with 32.1%; and `CN1CCC(Nc2ccc(F)c(Cl)c2)CC1`, with 53.5%.
In the case of `CCOC(=O)N1CCC(Nc2ccc(OC)cc2)CC1`, the double positive events was 45.7%.
Under `N#CC1(Nc2ccccc2)CCN(Cc2ccccc2)CC1` stands 45.4%.
Under `O=C(NCC1(N2CCCCC2)CCCCC1)c1ccc(Cl)s1` stands 39.8%.
Then `O=C(OC1CN2CCC1CC2)C1c2ccccc2Oc2ccccc21` (centres undefined), with 43.9%.
`COc1ccc(Cl)cc1C(=O)NCC1(N2CCOCC2)CCCCC1`: the double positive events amounted to 43.9%.
Then `O=C(NCC1(N2CCOCC2)CCCCC1)c1cc2ccccc2o1`, with 17.8%; and `O=C(NCC1(N2CCCCC2)CCCCC1)c1ccc(Cl)nc1`, with 21.7%; and `Cc1cc(C)cc(N(C(=O)c2ccccc2)C2CCN(C(=O)OC(C)(C)C)CC2)c1`, with 17.1%.
Under `CSc1ccccc1C(=O)NCC1(N2CCCCC2)CCCCC1` stands 20.5%; under `O=C(NCC1(N2CCCCC2)CCCCC1)c1ccc(=O)[nH]c1`, 10.8%; under `O=C(NCC1(N2CCCCC2)CCCCC1)c1cccs1`, 39.9%.
Then `COc1ccc(C(=O)NCC2(N3CCCCC3)CCCCC2)cc1`, with 43.6%; and `COc1ccc(C(=O)NCC2(N3CCCCC3)CCCCC2)c(OC)c1OC`, with 31%; and `CC(C)(C)OC(=O)N1CCC(N(C(=O)c2ccccc2)c2ccc(F)cc2)CC1`, with 33.9%.
The compound `CCOC(=O)N1CCC(Nc2cccc(C)c2)CC1` showed a double positive events of 49.1%.
Under `COc1cc(C(=O)NCC2(N(C)C)CCCCC2)ccc1OC(F)F` stands 36.7%; under `Cc1ccc(OCC(C)C)c(CN(CCCl)CCCl)c1`, 49.4%; under `O=C(NCC1(N2CCCCC2)CCCCC1)c1ccc(F)cc1`, 30.3%.
Under `COc1ccc(NC2CCN(CCc3ccccc3)CC2)c(OC)c1` stands 18.7%; under `CCOC(=O)N1CCC(Nc2ccc(F)cc2)CC1`, 21.2%.
Under `CN1CCN(CCOC(=O)C(O)(c2ccccc2)c2ccccc2)CC1` stands 35%; under `COc1ccc(NC2CCN(C(=O)OC(C)(C)C)CC2)cc1`, 36.4%; under `COc1cc(C(=O)NCC2(N3CCCCC3)CCCCC2)ccc1OC(F)F`, 16%.
Consider `O=C(NCC1(N2CCOCC2)CCCCC1)c1cc(=O)[nH]c2ccccc12`, for which the double positive events worked out at 45.4%.
Then `O=C(NCC1(N2CCCCC2)CCCCC1)c1cccc(C(F)(F)F)c1`, with 45.2%; and `O=C(NCC1(N2CCCCC2)CCCCC1)c1cccc([N+](=O)[O-])c1`, with 44.9%.
Under `CCN1CCC(Nc2ccc(Cl)cc2)CC1` stands 48.1%; under `N#CC1(Nc2ccccc2)CCN(CCc2ccccc2)CC1`, 18.6%.
Under `O=C(NCC1(N2CCCCC2)CCCCC1)c1ccc(OC(F)F)cc1` stands 49.8%.
In the case of `CCCOc1ccc(C(=O)NCC2(N(C)C)CCCCC2)cc1OC`, the double positive events was determined as 15.7%.
Under `CN1CCC(Nc2cccc(F)c2)CC1` stands 48.8%; under `O=C(NCC1(N2CCCCC2)CCCCC1)c1cncc(Br)c1`, 27.5%; under `COc1cc(OC)c(C(=O)NCC2(N(C)C)CCCCC2)cc1OC`, 17.3%.
Under `O=C(NCC1(N2CCOCC2)CCCCC1)c1cc(F)c(F)cc1Cl` stands 34.9%; under `CN(C)c1cccc(C(=O)NCC2(N3CCCCC3)CCCCC2)c1`, 35.9%.
Then `CC(C)c1ccc(NC2CCN(C(=O)OC(C)(C)C)CC2)cc1`, with 4.8%.

The values are drawn from PubChem BioAssay AID2052 (NMMLSC, 2009).
